PubChem BioAssay AID1259331 | Drosophila RNAi Screening Center, 2017
The whole screen tested about 3,100 reagents; this is an unselected part. 126 of them (4.1%) count as active. 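Calls are per reagent; zinc was so toxic that few knock-downs lowered ATP further, so most hits raise ATP.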 Raw values vary from plate to plate and are shown uncorrected. No sequences are given here. Not given: the amount of reagent.

- Aim: 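Genes whose knock-down changes cell survival under toxic zinc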 (primary screen)
- System: Drosophila S2R+ cells
- Reagents: long dsRNA against Drosophila genes
- Duration: 5 days (4 days knock-down, then 1 day zinc)
- Conditions: zinc chloride at 15 mM final level for 1 day
- Detection: 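Total cellular ATP measured by luciferase luminescence as a viability proxy, turned into Z scores from three plate copies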
- Direction: mean Z score: higher = more ATP than other wells, better survival under zinc; ATP luminescence: higher = more ATP, more viable cells
- Call rule: 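a reagent is called a hit when its Z score is above 1.5 or below -1.5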
- Calls: active = hit, ATP up or down; inactive = not a hit

For CCAP-R [DRSC14891], what was measured?
mean Z score: -0.142; ATP luminescence, replicate 1: 42591; ATP luminescence, replicate 2: 41668; activity call: inactive

With CCAP-R [DRSC15967], what does the deposit list?
mean Z score: -0.16; ATP luminescence, replicate 1: 35050; ATP luminescence, replicate 2: 53807; activity call: inactive

How did the screen score CCAP-R [DRSC29494]?
mean Z score: 0.202; ATP luminescence, replicate 1: 63101; ATP luminescence, replicate 2: 65948; activity call: inactive

For Zip99C [DRSC16320], what does the deposit list?
mean Z score: -0.432; ATP luminescence, replicate 1: 38668; ATP luminescence, replicate 2: 42955; activity call: inactive

With Dh31-R [DRSC06669], how do the results read?
mean Z score: -0.244; ATP luminescence, replicate 1: 61935; ATP luminescence, replicate 2: 65742; activity call: inactive

What did the screen give for Dh31-R [DRSC23417]?
mean Z score: 0.323; ATP luminescence, replicate 1: 64799; ATP luminescence, replicate 2: 67966; activity call: inactive

For AstA-R2 [DRSC24820], how do the results read?
mean Z score: -0.204; ATP luminescence, replicate 1: 53018; ATP luminescence, replicate 2: 50177; activity call: inactive

For GABA-B-R3 [DRSC00561], how do the results read?
mean Z score: -0.56; ATP luminescence, replicate 1: 39285; ATP luminescence, replicate 2: 38668; activity call: inactive

How did the screen score GABA-B-R3 [DRSC29404]?
mean Z score: -0.117; ATP luminescence, replicate 1: 56791; ATP luminescence, replicate 2: 62450; activity call: inactive

Just “ATP luminescence, replicate 2”, for 3 of the entries above:
CCAP-R [DRSC14891] = 41668
CCAP-R [DRSC15967] = 53807
CCAP-R [DRSC29494] = 65948

Next records follow:
For CG33673 [DRSC00084], what was measured?
mean Z score: -0.218; ATP luminescence, replicate 1: 38942; ATP luminescence, replicate 2: 40928; activity call: inactive

Which result is listed for CG33673 [DRSC38938]?
mean Z score: 0.00495; ATP luminescence, replicate 1: 47154; ATP luminescence, replicate 2: 48252; activity call: inactive

For Or98b [DRSC21751], what does the deposit list?
mean Z score: 0.0737; ATP luminescence, replicate 1: 47354; ATP luminescence, replicate 2: 47737; activity call: inactive

For ed [DRSC00350], what was measured?
mean Z score: 0.094; ATP luminescence, replicate 1: 54253; ATP luminescence, replicate 2: 61047; activity call: inactive

What did the screen give for ed [DRSC00439]?
mean Z score: 0.0406; ATP luminescence, replicate 1: 37245; ATP luminescence, replicate 2: 60015; activity call: inactive

For ed [DRSC00478], how do the results read?
mean Z score: 0.173; ATP luminescence, replicate 1: 58057; ATP luminescence, replicate 2: 41342; activity call: inactive

Which result is listed for Ranbp16 [DRSC20160]?
mean Z score: -0.0876; ATP luminescence, replicate 1: 64148; ATP luminescence, replicate 2: 65056; activity call: inactive
